Data source: PubChem BioAssay AID493246 (Drosophila RNAi Screening Center, 2011)
In all, the deposit lists about 21,000 reagents; this is an unselected part of those that have a named target and a result. In the full data, 429 (2%) were called active. 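Values are raw and not normalised between plates; calls rest on per-plate z-scores that were not deposited.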 Entries without a mark were called inactive. The record does not give: the amount of reagent, the time to read-out.

Screen: 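Genome-wide search for dsRNAs that reduce cell number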 (primary screen)
Cells: Drosophila Kc and S2R+ cells
Reagent: long dsRNA against Drosophila genes
Measured: 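Raw, unnormalised count of remaining cells in each well; per-plate z-scores of cell number underlie the calls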
Scale: Kc cell number and S2R+ cell number: higher = more cells remaining
Hit rule: 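Counted as a hit if cell number falls by a z-score of at least 3 within its plate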

Knock-down of CG8157 [DRSC07085] gave: Kc cell number, rep 1 = 1.82e6; Kc cell number, rep 2 = 1.95e6; S2R+ cell number, rep 1 = 1.52e6; S2R+ cell number, rep 2 = 1.65e6.
For CG9497 [DRSC03234] the deposit lists Kc cell number, rep 1 = 1.35e6; Kc cell number, rep 2 = 1.45e6; S2R+ cell number, rep 1 = 6.10e5; S2R+ cell number, rep 2 = 9.01e5.
With knock-down of CG8892 [DRSC03121], the screen gave Kc cell number, rep 1 = 1.21e6; Kc cell number, rep 2 = 1.24e6; S2R+ cell number, rep 1 = 6.15e5; S2R+ cell number, rep 2 = 7.22e5.
CG15172 [DRSC02473] gave Kc cell number, rep 1 = 1.64e6; Kc cell number, rep 2 = 1.69e6; S2R+ cell number, rep 1 = 1.22e6; S2R+ cell number, rep 2 = 2.51e5.
With knock-down of Mco1 [DRSC02720] the results were Kc cell number, rep 1 = 1.45e6; Kc cell number, rep 2 = 1.55e6; S2R+ cell number, rep 1 = 1.19e6; S2R+ cell number, rep 2 = 1.35e6.
Against Cyt-b5 [DRSC07392] the deposit lists Kc cell number, rep 1 = 1.04e6; Kc cell number, rep 2 = 1.26e6; S2R+ cell number, rep 1 = 8.15e5; S2R+ cell number, rep 2 = 8.10e5.
Knock-down of CG11929 [DRSC00339] resulted in: Kc cell number, rep 1 = 1.56e6; Kc cell number, rep 2 = 1.62e6; S2R+ cell number, rep 1 = 1.22e6; S2R+ cell number, rep 2 = 1.36e6.
UGP [DRSC10411] gave Kc cell number, rep 1 = 1.41e6; Kc cell number, rep 2 = 1.50e6; S2R+ cell number, rep 1 = 1.25e6; S2R+ cell number, rep 2 = 1.17e6.
Depletion of csw [DRSC18756] resulted in: Kc cell number, rep 1 = 1.44e6; Kc cell number, rep 2 = 1.45e6; S2R+ cell number, rep 1 = 9.96e5; S2R+ cell number, rep 2 = 1.11e6.
Against Cpr11B [DRSC19859], the entry reads Kc cell number, rep 1 = 5.34e5; S2R+ cell number, rep 1 = 8.22e5.
Silencing of Sms [DRSC10408] came out at: Kc cell number, rep 1 = 1.26e6; Kc cell number, rep 2 = 1.37e6; S2R+ cell number, rep 1 = 1.30e6; S2R+ cell number, rep 2 = 1.33e6.
CG33229 [DRSC07863] showed Kc cell number, rep 1 = 1.54e6; Kc cell number, rep 2 = 1.66e6; S2R+ cell number, rep 1 = 9.36e5; S2R+ cell number, rep 2 = 1.11e6.
For dpr20 [DRSC08265], the entry reads Kc cell number, rep 1 = 1.36e6; Kc cell number, rep 2 = 1.38e6; S2R+ cell number, rep 1 = 1.06e6; S2R+ cell number, rep 2 = 1.08e6.
Against CG14395 [DRSC14852], the values are Kc cell number, rep 1 = 1.49e6; Kc cell number, rep 2 = 1.64e6; S2R+ cell number, rep 1 = 1.34e6; S2R+ cell number, rep 2 = 1.39e6.
